Structures are written as SMILES. The list shows a part of the results. Values are raw readings; no control value is given beside them.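 Primary screen: polymyxin B was added at a level permeabilizing Salmonella outer membranes while sparing inner membranes. DMSO wells, both with and without polymyxin B, established maximum growth. Plate-to-plate variation meant each plate was ranked on its own, and the lowest-OD600 compounds were selected as hits.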

19 compounds from the supplement of paper PMC12889115 can be followed below.

This test concerns Salmonella enterica serovar Typhimurium SL1344. In words: bacterial growth OD600 after 18 h with compound and polymyxin B; higher = more bacterial growth (less inhibition). The following applies: 50 µM, Mueller-Hinton broth.

With `Cc1cc(C)c(C(=O)NC2CC(C)(C)Cc3nc(N4CCOCC4)ncc32)o1` (centres undefined), the “bacterial growth OD600” value (polymyxin B 0.75 µg/mL) is 1.09.
On to `CCOC(=O)CC1(NC(=O)C2CCC(=O)N(CCc3ccccn3)C2)CCCCC1` (centres undefined), for which, under “polymyxin B 1 µg/mL”, the “bacterial growth OD600” value is 1.04.
Consider `O=C(NCc1ccccc1F)c1ccc(N2CCC(NCc3cnn(Cc4ccccc4)c3)CC2)cc1`, for which the “bacterial growth OD600” value (polymyxin B 0.75 µg/mL) is 0.717.
For the compound `CCCC(=O)N1CCC2(CCCN(CCCc3ccccc3)C2=O)C1` (centres undefined), where the note is “polymyxin B 1 µg/mL”, the “bacterial growth OD600” value was found to be 0.968.
For `O=C(NCCN1CCCC(O)C1)c1ccc2nc(Cc3cccc(Cl)c3)oc2c1` (centres undefined), under “polymyxin B 0.75 µg/mL”, the “bacterial growth OD600” value was determined as 0.689.
Same read-out and setting: to `CCOC(=O)C1CCN(c2nc3c(OC)ccc(OC)c3cc2CN[C@H]2CCCCNC2=O)CC1` belongs 0.884.
For the compound `CC(C(=O)N1CCC(n2nccc2NC(=O)c2ccc3c(c2)OCO3)CC1)c1ccccc1` (centres undefined), the “bacterial growth OD600” value (polymyxin B 1 µg/mL) was found to be 0.908.
Turning to `COc1ccc(CNC(=O)CCC2CCCN(Cc3ccc(F)cc3F)C2)c(OC)c1` (centres undefined), where the note is “polymyxin B 1 µg/mL”, the “bacterial growth OD600” value worked out at 1.12.
For the compound `O=C(c1ccccc1)C1CCCN(Cc2nc(COc3ccccc3)no2)C1` (centres undefined), under “polymyxin B 1 µg/mL”, the “bacterial growth OD600” value was 0.788.
As for `O=C(COc1ccc(N2CCN(c3ccccn3)CC2)nn1)NCC1(c2ccccc2)CCOCC1`, the “bacterial growth OD600” value (polymyxin B 0.75 µg/mL) was 0.775.
On the same count and under the same terms, as for `COc1ccc(CN2CCOc3ccc(C(C)(O)COc4ccccc4)cc3C2)c(OC)c1` (centres undefined), the figure is 0.008.
As to `Cc1c(C(=O)NCc2cccs2)oc2c(F)cccc12`, the “bacterial growth OD600” value (polymyxin B 1 µg/mL) was 0.785.
As for `O=C(NCc1cccnc1Oc1ccccc1)c1ccccn1`, under “polymyxin B 0.75 µg/mL”, the “bacterial growth OD600” value stood at 0.778.
Consider `O=C(CCC1CCN(Cc2ncc[nH]2)CC1)Nc1ccccc1Cl`, for which the “bacterial growth OD600” value (polymyxin B 1 µg/mL) is 0.902.
As for `Cc1nccn1CCC(=O)N(C)CC1CCCN(CCc2ccc(Cl)cc2)C1` (centres undefined), the “bacterial growth OD600” value (polymyxin B 1 µg/mL) is 0.664.
With `CCOc1ccc2nc(N3CCCN(Cc4cccn4-c4ccccn4)CC3)nc(C)c2c1`, the “bacterial growth OD600” value (polymyxin B 0.75 µg/mL) came out at 0.892.
As for `C#CCN(Cc1ccco1)C(=O)c1cc(OC)ccc1OC1CCN(C(=O)C2CC2)CC1`, under “polymyxin B 1 µg/mL”, the “bacterial growth OD600” value is 0.449.
With `CCOC(=O)N1CCC(N2CCCN(c3nc(C)c4cc(OCC)ccc4n3)CC2)CC1`, the “bacterial growth OD600” value (polymyxin B 0.75 µg/mL) stood at 0.775.
Turning to `CN(C(=O)c1ccsc1)C(Cc1ccccc1)C1CCN(C(=O)c2ccc3[nH]ccc3c2)CC1` (centres undefined), the “bacterial growth OD600” value (polymyxin B 0.75 µg/mL) is 0.799.
